The record followed here is article PMC12040169 (PLOS Biology, 2025).

The list shows a part of the results.

For the test, the system named is T1, CTL2-GFP (C. trachomatis L2/434/Bu, GFP-expressing).
T1 construct: L2/434/Bu, GFP-expressing
Further details: species or system HeLa; Intracellular C. trachomatis growth in HeLa cells, bulk GFP fluorescence relative to DMSO. The following applies: bulk GFP, single well; 28.5 h, 10 µM; inhibitor.
Consider `CCc1nnc(NS(=O)(=O)c2cc(C(=O)O)c(Cl)cc2F)s1` [CBK062195], for which the “% of control remaining” value is reported as 113.235%. Then `O=C(NCC1(c2ccccc2F)CCOCC1)[C@@H]1C[C@@H]2C=C[C@H]1C2` [CBK281552], with 127.812%; and `CCn1cc(CC(=O)Nc2cccc(-n3cnnc3)c2)c2ccccc21` [CBK282669], with 134.554%; and `CCOC(=O)C(C)n1nc(C)n2c(cc3sccc32)c1=O` (stereo not shown) [CBK283333], with 143.183%. For the compound `CN(C)S(=O)(=O)c1ccc(C(=O)Nc2ccc(-c3ccccc3)cc2)cc1` [CBK264978], the “% of control remaining” value stood at 117.687%. Consider `CN(C)S(=O)(=O)N(CC(=O)NCc1ccncc1)c1ccccc1` [CBK268322], for which the “% of control remaining” value came to 130.377%. For `O=C(CSc1nnc(CN2CCOCC2)n1-c1ccc(Cl)cc1)N1CCc2ccccc21` [CBK269008] the value was 96.9474%; for `Cn1nnc2c(N3CCN(C(=O)c4ccccc4)CC3)ncnc21` [CBK287830], 130.487%; for `O=C(C1CCCC1)N1CCC[C@@H]1Cn1c(=O)oc2ccccc21` [CBK284539], 154.792%.

As to `COc1nccnc1OC1CCN(Cc2ccccc2)CC1` [CBK084238], the “% of control remaining” value is on record as 113.188%.

As to `COc1ccc(OC)c(C2CC(c3ccc(NS(C)(=O)=O)cc3)=NN2C(=O)CCC(=O)O)c1` (stereo not shown) [CBK297781], the “% of control remaining” value was determined as 110.125%. `Clc1ccc(-n2ncc(-c3cccnc3)n2)cc1Cl` [CBK112814]: the “% of control remaining” value amounted to 90.624%.

Turning to `O=C(O)CCC(=O)NCc1ccc(-c2nccnc2NS(=O)(=O)c2ccc(O)cc2)cc1` [CBK073843], the “% of control remaining” value came out at 81.8376%.

As to `COC(=O)c1ccccc1NC(=O)CSc1nc(C)cc(C)n1` [CBK263818], the “% of control remaining” value came out at 100.947%.

On to `CC(C)C(=O)N1C2CCC1Cn1c(nc3ccccc3c1=O)C2` (stereo not shown) [CBK284450], for which the “% of control remaining” value is 132.697%.

Take `CC(C)(C)C(=O)CN1CCC(C(=O)NC(c2ccccc2)c2ccco2)CC1` (stereo not shown) [CBK148298]: the “% of control remaining” value stood at 143.867%. As to `Cc1nc(NS(=O)(=O)c2cc(F)c(Br)cc2F)sc1C(=O)O` [CBK045556], the “% of control remaining” value came to 107.762%. Then `Cc1ccccc1NC(=O)CC(C(=O)O)N(C)C` (stereo not shown) [CBK266924], with 159.961%. For `O=C(NOCc1ccccc1)c1nn(-c2ncccn2)c2ccccc12` [CBK048503] the value was 132.33%; for `COc1ccc(-c2cn(-c3cc(Cl)ccc3C)nn2)cc1` [CBK113023], 89.0181%; for `COc1cncc(-c2ccc(N3CCN(C(=O)c4ccco4)CC3)nc2)c1` [CBK037801], 84.2574%. On to `CN1CCN(C(=O)c2c(NS(=O)(=O)c3cc(F)c(Br)cc3F)sc3c2CCCC3)CC1` [CBK050419], for which the “% of control remaining” value amounted to 102.741%. Then `CCCC/C=C/c1nccnc1NCC1CC1` [CBK037268], with 151.986%; and `O=C(c1ccc(-c2ccc(F)cc2)o1)N1CCC(n2c(=O)oc3ccccc32)CC1` [CBK286175], with 74.6505%. With `C=CCn1c(-c2sc(NC(=O)c3ccc(CNC(=O)NC(C)C)cc3)nc2C)n[nH]c1=S` [CBK297764], the “% of control remaining” value is given as 92.3482%. With `CN(C)C(=O)CN1C(=O)CC2(C1=O)C(=O)N(C)c1ccc(Cl)cc12` (stereo not shown) [CBK075232], the “% of control remaining” value came to 120.56%. For `CC1(C)CC(NC(=O)c2cc(Cn3ccc4ccccc43)[nH]n2)CCO1` (stereo not shown) [CBK307092] the value was 105.042%; for `NC(=O)C1CCN(CC(O)COc2ccc(-c3ccccc3)cc2)CC1` (stereo not shown) [CBK269528], 122.581%.

Consider `O=C(Cn1cnc2c(cnn2-c2ccc(F)cc2)c1=O)Nc1ccc(F)cc1F` [CBK287537], for which the “% of control remaining” value was found to be 147.504%. For `Cc1nc2c3c(sc2c(=O)[nH]1)NC(=O)CC3c1ccccc1` (stereo not shown) [CBK288094] the value was 132.62%.

For `Cc1nc2ccc(C(=O)NC3=NC(=O)CS3)cn2c1N(C)Cc1cccs1` [CBK146110], the “% of control remaining” value stood at 164.169%. With `Cc1ccc(S(=O)(=O)N(CC(O)CN2C(=O)NC(C)(C)C2=O)c2ccccc2[N+](=O)[O-])cc1` (stereo not shown) [CBK263572], the “% of control remaining” value is 83.058%. Then `O=C(O)c1cccc(Sc2nc3cc(Cl)c(Cl)cc3nc2N2CCCC2)c1` [CBK093588], with 103.975%; and `CC1CCCN(C(=O)Cn2ncn3c(cc4ccsc43)c2=O)C1` (stereo not shown) [CBK284245], with 137.084%. Take `N#Cc1c(NC(=O)CSc2nnnn2-c2ccc(C(=O)O)cc2)sc2c1CCCC2` [CBK299876]: the “% of control remaining” value amounted to 172.045%. With `CCCNc1nc(O)cc(C(F)(F)F)n1` [CBK000214], the “% of control remaining” value was determined as 121.733%. As to `COC(=O)CCN(C)CCC(=O)OC` [CBK264539C], the “% of control remaining” value is recorded as 135.67%. For `CCn1cc(NS(=O)(=O)c2ccc(N3CCCC3=O)cc2)cn1` [CBK305922], the “% of control remaining” value was determined as 116.815%. In the case of `OC(CN1CCC2(CC1)CC(O)c1cc(F)ccc1O2)c1ccc(-c2ccccc2)cc1` (stereo not shown) [CBK286331], the “% of control remaining” value is 69.0364%. On to `CC(=O)NCC12CC3CC(C1)CC(C(=O)O)(C3)C2` [CBK286768], for which the “% of control remaining” value stood at 140.892%. Take `O=C(CN1C2CCC1CC(O)(c1ccco1)C2)N1c2ccccc2CCc2ccccc21` (stereo not shown) [CBK286168]: the “% of control remaining” value turned out to be 114.249%. Consider `COc1ccccc1N1CCN(C(=O)CN2C(=O)c3ccccc3C2=O)CC1` [CBK091501], for which the “% of control remaining” value was found to be 120.276%.

Turning to `Cc1ccc(C(=O)N2CN(C(=O)CNCC(C)C)CC2(C)C)cc1` [CBK089576C], the “% of control remaining” value turned out to be 108.242%. Then `CC1CCc2c(sc(NC(=O)c3cc(-c4cccnc4)nc4ccc(Cl)cc34)c2C(N)=O)C1` (stereo not shown) [CBK267762], with 98.5859%. For `Cc1nccn1CCNC(=O)c1ccccc1Cn1cccn1` [CBK281979] the value was 117.826%.

Take `O=C(O)c1cn(C2CC2)c2cc(N3CCN(C(=O)C4CCCO4)CC3)c(F)cc2c1=O` (stereo not shown) [CBK297139]: the “% of control remaining” value worked out at 8.519%. Consider `Cn1nc(-c2ccc(F)cc2)cc1[C@H]1CN2CC[C@H]1C[C@@H]2CNS(C)(=O)=O` [CBK289109], for which the “% of control remaining” value is recorded as 111.268%. Then `CC(C)(C)c1cc(C(=O)N2CCn3cc(C(F)(F)F)nc3C2)[nH]n1` [CBK284748], with 101.916%; and `CCCN(c1nc(C)c(Br)c(OC)n1)S(=O)(=O)c1ccc(C)cc1` [CBK028072], with 76.4047%.
